Results deposited as PubChem BioAssay AID1259308 (NCATS, 2017).
Aim: 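Knock-downs that increase output of a recombinant reporter protein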 (primary screen). Cells: human HEK293 embryonic kidney cells stably expressing firefly luciferase (HEK-CMV-Luc2-Hygro). Reagent: single siRNA against human genes, 0.8 pmol siRNA per well. Time to read-out: 72 h. Measured: 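Reporter luminescence and viable-cell signal on separate replicate plates, given as percent of non-targeting control and median/MAD z-scores, plus per-cell luciferase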. Scale: total luciferase, z-score and total luciferase, % of control: higher = more reporter protein produced; luciferase per cell, z-score: higher = more reporter output per viable cell; viable cells, % of control: higher = more viable cells. Call rule: 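Active when the median/MAD z-score for overall luciferase is greater than 3; a gene was taken forward for validation with new siRNAs if at least two of its three siRNAs passed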. Meaning of the calls: active = raised luciferase; inactive = no rise.
This is a random part of about 59,000 reagents. About 1,510 of all reagents (2.6%) were called active. 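Calls use total luciferase alone and ignore viability, so some active siRNAs may act by altering cell number.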 Unmarked entries are inactive. The numbers tell different reagents against one gene apart. No sequences are given here.

gene | reagent no. | total luciferase, z-score | total luciferase, % of control | luciferase per cell, z-score | viable cells, % of control
RNF145 (GeneID 153830) | 1 | -0.283 | 76.3 | 0.18 | 81.3
RNF145 (GeneID 153830) | 2 | 0.257 | 87 | 0.48 | 85.7
RNF145 (GeneID 153830) | 3 | -1.1 | 60 | -0.0351 | 67.6
DNAJC27-AS1 (GeneID 729723) | 1 | 0.476 | 91.4 | 0.707 | 84.7
DNAJC27-AS1 (GeneID 729723) | 2 | -0.568 | 70.6 | 0.164 | 75.5
DNAJC27-AS1 (GeneID 729723) | 3 | -0.881 | 64.4 | -0.306 | 78
GUCY1B1 (GeneID 2983) | 1 | -0.659 | 68.8 | 0.229 | 72.4
GUCY1B1 (GeneID 2983) | 2 | -0.387 | 74.2 | -0.857 | 104
GUCY1B1 (GeneID 2983) | 3 | -0.234 | 77.2 | -0.332 | 94.2
PDCD6 (GeneID 10016) | 1 | 0.0363 | 82.6 | 0.433 | 82.4
PDCD6 (GeneID 10016) | 2 | -0.753 | 66.9 | -0.516 | 85.7
PDCD6 (GeneID 10016) | 3 | -0.509 | 71.8 | 0.0947 | 78.2
STK10 (GeneID 6793) | 1 | -1.89 | 44.3 | -1.49 | 73.1
STK10 (GeneID 6793) | 2 | 1.1 | 104 | 0.567 | 99.9
STK10 (GeneID 6793) | 3 | 3.19 (active) | 145 | 1.8 | 101
LOC729681 (GeneID 729681) | 1 | -0.266 | 76.6 | -0.228 | 90.9
LOC729681 (GeneID 729681) | 2 | -0.514 | 71.7 | -0.00423 | 80.2
LOC729681 (GeneID 729681) | 3 | 1.22 | 106 | 1.61 | 77.5
AGPAT2 (GeneID 10555) | 1 | -0.676 | 68.4 | -0.941 | 98
AGPAT2 (GeneID 10555) | 2 | 0.364 | 89.1 | 0.385 | 90
AGPAT2 (GeneID 10555) | 3 | -1.13 | 59.5 | -1.27 | 92.8
SLC27A4 (GeneID 10999) | 1 | 1.02 | 102 | 0.89 | 90.3
SLC27A4 (GeneID 10999) | 2 | -0.188 | 78.1 | -0.442 | 98.1
SLC27A4 (GeneID 10999) | 3 | -0.343 | 75.1 | -0.235 | 89.2
